Series [1] has as its target T1, BRCA2 NTD-S273L (human) (UniProt P51587).
T1 sequence (looked up): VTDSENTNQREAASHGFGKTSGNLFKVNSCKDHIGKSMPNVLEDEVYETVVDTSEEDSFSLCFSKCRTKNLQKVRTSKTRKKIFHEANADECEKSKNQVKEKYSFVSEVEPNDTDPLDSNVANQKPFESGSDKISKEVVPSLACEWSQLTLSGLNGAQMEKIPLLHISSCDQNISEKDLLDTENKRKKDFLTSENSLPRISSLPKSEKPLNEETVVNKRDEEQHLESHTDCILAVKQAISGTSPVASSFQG
The series can be described thus: EMSA. The settings on record: EMSA: 25 mM Tris acetate pH 7.5, 1 mM DTT, 1 mM MgCl2, 2 mM CaCl2, 1 h at 37 C, 6% native PAGE in 1x TAE, recombinant protein, residues 250-500, protein details: 2xMBP. (In general: A gel shift assay detects complexes by their altered migration in electrophoresis.)

Series [2] concerns the target T2, BRCA2 NTD (human) (UniProt P51587).
T2 sequence (looked up): T1 sequence (looked up) with L24S
As to the kind of experiment: EMSA. The settings on record: EMSA: 25 mM Tris acetate pH 7.5, 1 mM DTT, 1 mM MgCl2, 2 mM CaCl2, 1 h at 37 C, 6% native PAGE in 1x TAE, recombinant protein, residues 250-500, protein details: 2xMBP.

[3] abbreviates: 5 nM DNA, label: 5'-32P on oAC405.
Setting [4] is: 6 nM DNA, label: 5'-32P, single-stranded DNA.

Residue numbers refer to the chain shown, from its start. For some of these results: The comparison behind a weaker result is the experiment's own reference, which may not be listed here. Tags and fusion partners may be left off the protein sequences shown. For some of these results: Construct, isoform or probe ends are uncertain for at least one entry. For some of these results: At least one verdict was read from the data and is not stated in words by the source.

In the case of “TAATACAAAATAAGTAAATGAATAAACAGAGAAAATAAAG (double strand) [dsDNA 42mer (oAC405/oAC406)]”, the binding result in series [1] (setting [3]) was “binds more weakly”; in series [2] (setting [3]), “binds”.
As for “TTTTTTTTTTTTTTTTTTTTTTTTTTTTTTTTTTTTTTTT [dT40 (oAC379)]”, the binding result in series [1] (setting [4]) is reported as “binds more weakly”; in series [2] (setting [4]) it was “binds”.

Values taken from publication PMC9883520.
